Data as given in patent US11760889B2, “Unsaturated fatty alcohol derivatives from natural oil metathesis” (priority 2012, dated 2023).

Key:
[1] = Laundry detergents: evaluation as a primary anionic surfactant (soil removal index); conditions: versus Steol CS-370
[2] = Specialty foamer (gypsum): foam stability, drainage method; set-up: key to Rating: These compositions are identified as “good” performers as gypsum foam destabilizers; conditions: 342 ppm hard water; for Liquid Volume (mL) vs. Drain Time (min): 0.4 wt. % active; for Rating: potential foamers for gypsum
[3] = Personal care cleansing: mechanical shake foam test; conditions: 0.2% total surfactant actives, 25° C. tap water
[4] = Emulsion polymerization surfactant screen; conditions: surfactant level in EP 0.50%
Description: A reaction kettle is charged with sodium bicarbonate (0.50 g), water (225 g), and seed latex (30 g) and the mixture is heated to and held at 83° C. under nitrogen with stirring at 200 rpm. […] Methyl methacrylate (255 g), butyl acrylate (235 g), and methacrylic acid (10 g) are combined in an Erlenmeyer flask and mixed. […] Separately, two other mixtures are prepared: an initiator shot mixture of ammonium persulfate (1.0 g) in water (20 g), and a cofeed mixture of ammonium persulfate (2.70 g), sodium bicarbonate (1.50 g), and water (75 g); the total amount of initiator used is 0.74% based on monomers. The initiator shot is charged to the 83° C. reaction kettle dropwise over 1 min, then held for 10 min. The monomer emulsion is then fed to the kettle at 2.1 mL/min. for 10 min. The feed rate of the monomer emulsion is increased to 4.2 mL/min., and the cofeed mixture is started at 0.37 mL/min. Total addition time is 3 h, during which particle size and temperature are monitored. After addition of the monomer emulsion is complete, a water wash (50 g) is started, and heating at 83° C. continues for 1 h. The product is cooled. The pH is adjusted to 7.5 with dilute ammonium hydroxide solution. A preservative is added, and the mixture is filtered.

[5] = Agricultural dispersant screening (sedimentation of pesticide powder in hard water); set-up: key to Sedimentation results at 1 h: Trace of sediment=“Tr”; flocked is also abbreviated as “FI.”
[6] = Chlorothalonil, test water 342 ppm
[7] = Chlorothalonil, test water 1000 ppm
[8] = Imidacloprid, test water 342 ppm
[9] = Imidacloprid, test water 1000 ppm
[10] = Tebuconazole, test water 342 ppm
[11] = Tebuconazole, test water 1000 ppm

| Compound | Liquid Volume (mL) vs. Drain Time (min) ([2]; drain time 0.5 min) [mL] | Liquid Volume (mL) vs. Drain Time (min) ([2]; drain time 1.0 min) [mL] | Liquid Volume (mL) vs. Drain Time (min) ([2]; drain time 1.5 min) [mL] | Liquid Volume (mL) vs. Drain Time (min) ([2]; drain time 2.0 min) [mL] | Liquid Volume (mL) vs. Drain Time (min) ([2]; drain time 2.5 min) [mL] | Liquid Volume (mL) vs. Drain Time (min) ([2]; drain time 3.0 min) [mL] | Liquid Volume (mL) vs. Drain Time (min) ([2]; drain time 3.5 min) [mL] | Liquid Volume (mL) vs. Drain Time (min) ([2]; drain time 4.0 min) [mL] | Rating [2] | Foam Height, 5 min ([3]; Castor oil added) [mL] | Foam Height, initial ([3]; Castor oil added) [mL] | Foam Height, 5 min ([3]; No oil added) [mL] | Foam Height, initial ([3]; No oil added) [mL] | Sedimentation results at 1 h ([5]; Atrazine, test water 342 ppm) [mL] | Sedimentation results at 24 h ([5]; Atrazine, test water 342 ppm) [mL] | Sedimentation results at 1 h ([5]; Atrazine, test water 1000 ppm) [mL] | Sedimentation results at 24 h ([5]; Atrazine, test water 1000 ppm) [mL] | Sedimentation results at 1 h [5, 6] [mL] | Sedimentation results at 24 h [5, 6] [mL] | Sedimentation results at 1 h [5, 7] [mL] | further results |
| --- | --- | --- | --- | --- | --- | --- | --- | --- | --- | --- | --- | --- | --- | --- | --- | --- | --- | --- | --- | --- | --- |
| CCCCC=CCCCCCCCCOCCOCCOCCOS(=O)(=O)[O-].[Na+] (mixture of isomers) [A14-7, 3 Mole Ethoxylated C14 Alcohol, Sodium Sulfate] |  |  |  |  |  |  |  |  |  |  |  |  |  |  |  |  |  |  |  |  | ΔSRI values ([1]; beef tallow (BT)): 0.5; ΔSRI values ([1]; blood/ink/milk on cotton (EMPA 116)): 0.1; ΔSRI values ([1]; blueberry on cotton (BC)): −0.5; ΔSRI values ([1]; clay on cotton (CC)): 0.0; ΔSRI values ([1]; clay on cotton/polyester (CCP)): 0.0; ΔSRI values ([1]; cocoa on cotton (EMPA 112)): 0.6; ΔSRI values ([1]; coffee on cotton (COFC)): −0.5; ΔSRI values ([1]; dust sebum on cotton (DSC)): 0.2; ΔSRI values ([1]; dust sebum on cotton/polyester (DSCP)): 0.2; ΔSRI values ([1]; grass on cotton (GC)): 0.7; ΔSRI values ([1]; make-up on cotton (EMPA 143)): 0.1; ΔSRI values ([1]; red wine on cotton (RWC)): −0.4; ΔSRI values ([1]; sebum tefo (ST)): 0.8 |
| C=CCCCCCCCCOS(=O)(=O)O.N [A10-2] | 0.75 | 2.00 | 3.50 | 5.25 | 6.75 | 8.75 | 10.50 | 12.25 | good |  |  |  |  |  |  |  |  |  |  |  |  |
| C12 Alcohol Sodium Sulfate [A12-3] |  |  |  |  |  |  |  |  |  | 110 | 310 | 350 | 350 |  |  |  |  |  |  |  | Particle size (nm) ([4]; 0.5 h): 126 nm; Particle size (nm) ([4]; 1.0 h): 153 nm; Particle size (nm) ([4]; 2.0 h): 190 nm; Particle size (nm) ([4]; Final): 208 nm; coagulum (%) [4]: 0.08% |
| 3 Mole Ethoxylated C12 Alcohol, Sodium Sulfate [A12-9] |  |  |  |  |  |  |  |  |  | 130 | 300 | 290 | 440 | 0.25 | 1 to 1.75 | 0.25 | 1.25 to 1.75 | 0.5 to 0.75 | 1.25 to 1.5 | 0.5 | Sedimentation results at 24 h [5, 7]: 1.25 to 1.5 mL; Sedimentation results at 1 h ([5]; Diuron, test water 342 ppm): 0.5 mL; Sedimentation results at 24 h ([5]; Diuron, test water 342 ppm): Fl.; Sedimentation results at 1 h ([5]; Diuron, test water 1000 ppm): flocked; Sedimentation results at 1 h [5, 8]: 1.75 to 2 mL; Sedimentation results at 24 h [5, 8]: Fl.; Sedimentation results at 1 h [5, 9]: flocked; Sedimentation results at 1 h [5, 10]: Tr; Sedimentation results at 24 h [5, 10]: 1.75 to 2.0 mL; Sedimentation results at 1 h [5, 11]: flocked |
| C=CCCCCCCCCOS(=O)(=O)[O-].[Na+] [A10-3] | 3.00 | 5.75 | 8.00 | 10.25 | 12.50 | 14.50 | 16.00 | 17.75 | good |  |  |  |  |  |  |  |  |  |  |  |  |
| 1 Mole Ethoxylated C12 Alcohol, Ammonium Sulfate [A12-5] |  |  |  |  |  |  |  |  |  | 350 | 400 | 420 | 420 | 0.25 | 1 to 1.25 | 0.25 | 1.0 | 0.25 | 1.0 to 1.25 | 0.25 to 0.5 | Sedimentation results at 24 h [5, 7]: 1.0 to 1.25 mL; Sedimentation results at 1 h ([5]; Diuron, test water 342 ppm): 0.5 to 0.75 mL; Sedimentation results at 24 h ([5]; Diuron, test water 342 ppm): 1.0 to 1.25 mL; Sedimentation results at 1 h ([5]; Diuron, test water 1000 ppm): 0.5 mL; Sedimentation results at 24 h ([5]; Diuron, test water 1000 ppm): 0.75 to 1.0 mL; Sedimentation results at 1 h [5, 8]: 0.5 mL; Sedimentation results at 24 h [5, 8]: 1.0 to 1.5 mL; Sedimentation results at 1 h [5, 9]: 1.0 mL; Sedimentation results at 24 h [5, 9]: Fl.; Sedimentation results at 1 h [5, 10]: Tr; Sedimentation results at 24 h [5, 10]: 0.5 to 0.75 mL; Sedimentation results at 1 h [5, 11]: Tr; Sedimentation results at 24 h [5, 11]: 1 mL |
